Literature values, collected in patent publication US12303501B2, “Lipophilic active oral film formulation and method of making the same” (INTELGENX CORP., priority 2018, dated 2025).
For at least one compound, name, drawing or mass did not settle the structure.

Details: aqueous environment; cited from earlier work

For `CC(C)(O)c1ccccc1CC[C@@H](SCC1(CC(=O)O)CC1)c1cccc(/C=C/c2ccc3ccc(Cl)cc3n2)c1` [Montelukast], the “pH below which the active rapidly precipitates” value is listed as under 8.
